Our source for the binding values is publication PMC9281121.

Protein sequences, listed by entry. Tags and fused reporters are not part of them.
UniProt O43791: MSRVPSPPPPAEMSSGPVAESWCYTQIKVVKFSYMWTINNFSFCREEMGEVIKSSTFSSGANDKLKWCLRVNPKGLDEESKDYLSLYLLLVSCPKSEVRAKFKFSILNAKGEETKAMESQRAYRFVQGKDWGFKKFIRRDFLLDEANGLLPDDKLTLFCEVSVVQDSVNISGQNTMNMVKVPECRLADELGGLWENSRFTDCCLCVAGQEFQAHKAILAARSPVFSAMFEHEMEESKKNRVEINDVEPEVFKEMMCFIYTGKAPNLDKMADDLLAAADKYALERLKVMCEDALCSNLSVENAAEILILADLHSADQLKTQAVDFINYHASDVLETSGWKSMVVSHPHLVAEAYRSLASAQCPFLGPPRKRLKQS

Positions count from the first letter of the chain named. Results are given in words; binding and its absence hold for the method and conditions named. In cells and extracts the contact can be indirect. Some binding calls cover weakened binding; strength is not graded here. Sequences can lack the tags named with a protein.

Assay [1] addresses T1, Chromobox protein homolog 6 (CBX6), mutated (DARSS to DARAA), HA-tagged (UniProt O95503).
T1 sequence: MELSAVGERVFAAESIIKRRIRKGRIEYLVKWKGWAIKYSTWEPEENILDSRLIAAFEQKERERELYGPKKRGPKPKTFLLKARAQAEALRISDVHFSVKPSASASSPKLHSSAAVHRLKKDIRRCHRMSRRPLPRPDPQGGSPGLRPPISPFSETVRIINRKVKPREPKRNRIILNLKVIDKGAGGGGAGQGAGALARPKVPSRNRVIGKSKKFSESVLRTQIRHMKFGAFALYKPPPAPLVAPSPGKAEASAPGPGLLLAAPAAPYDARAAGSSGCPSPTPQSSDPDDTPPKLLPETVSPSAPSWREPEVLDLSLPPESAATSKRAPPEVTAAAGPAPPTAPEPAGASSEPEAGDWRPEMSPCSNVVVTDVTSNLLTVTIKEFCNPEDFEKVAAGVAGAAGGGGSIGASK
Briefly: co-IP; Myc-SPOP and wild-type or mutated HA-CBX6 transfected into HEK293T; lysates in Sucrose-NP40 lysis buffer (25 mM Tris-Cl pH 7.5, 150 mM NaCl, 0.5% NP40) incubated with anti-HA agarose beads 4 h in the cold room; Western blot with anti-HA and anti-SPOP. On the technique in general: In western blotting, separated proteins are transferred to a membrane and probed.

Assay [2] concerns the target T2, Chromobox protein homolog 6 (CBX6), wild type, HA-tagged (UniProt O95503).
T2 sequence: T1 sequence with A272S, A273S
Described as above.

In the case of “SPOP, Myc-tagged (from UniProt O43791 1-374)”, the binding result in assay [1] and in assay [2] was “binds” in each case.
